Reference: PubChem BioAssay AID651804 (National Center for Advancing Translational Sciences (NCATS), 2012)
Out of some 1,200 compounds screened, about 20 (2%) were called active. Not shown: some 23% with an inconclusive outcome. The call rests on the fitted dose curve; in most records, active means well fitted inhibition curve with a large enough effect; inconclusive means small, poorly fitted or top-dose-only effect; inactive means no such curve, though single readings can be large or run the other way. The list shows a part of the results.

The chains behind the UniProt entries cited, without tags or fusion partners. Where a name states a change or a piece, a line headed by the entry shows the natural chain unless it says otherwise.
UniProt P11308: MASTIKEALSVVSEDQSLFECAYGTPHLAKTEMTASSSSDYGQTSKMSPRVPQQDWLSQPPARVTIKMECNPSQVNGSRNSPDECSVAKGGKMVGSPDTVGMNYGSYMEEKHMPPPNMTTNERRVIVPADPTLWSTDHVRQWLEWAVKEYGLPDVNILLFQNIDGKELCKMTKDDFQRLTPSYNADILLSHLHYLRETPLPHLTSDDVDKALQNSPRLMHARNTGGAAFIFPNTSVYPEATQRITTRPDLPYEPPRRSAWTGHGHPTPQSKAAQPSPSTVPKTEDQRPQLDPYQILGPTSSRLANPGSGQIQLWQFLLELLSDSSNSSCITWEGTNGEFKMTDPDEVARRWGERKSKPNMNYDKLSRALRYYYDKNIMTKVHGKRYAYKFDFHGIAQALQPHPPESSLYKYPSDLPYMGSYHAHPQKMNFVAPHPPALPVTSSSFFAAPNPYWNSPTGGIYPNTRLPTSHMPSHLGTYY

What follows are molecules tested against Transcriptional regulator ERG (Homo sapiens) (UniProt P11308) (assay: qHTS for Small Molecule Inhibitors of the ERG Ets/DNA interaction: HTRF assay against cherry picks). Conditions: His-ERG Ets domain with biotin-DNA; series mostly up to 154 µM; activity change, negative = inhibition: at the top concentration.
Excerpt: The Ets family of proteins is a family of ~30 conserved transcription factors defined by the presence of an ~85 amino acid domain referred to as the Ets domain, which mediates sequence-specific DNA binding to a core DNA element GGAA/T.The Ets family member ERG has been linked to several neoplasms. […] More extensive studies of the effects of over-expression of ERG in prostate cells have recently been carried out and have shown that over-expression of ERG results in increased invasion. […] We will carry out a high throughout screen to identify inhibitors of the interaction between ERG and DNA using a fluorescence polarization (FP) assay with a His-tagged ERG Ets domain and fluorescently-labeled DNA probes to develop small molecule inhibitors of this interaction as probes to test this hypothesis and lay the groundwork for the development of targeted therapies against ERG. This is the counterscreen against the cherry picks. NIH Molecular Libraries Probe Production Network [MLPCN] NIH Chemical Genomics Center [NCGC] Grant: NS066464 PI Name: John Bushweller, University of Virgina
2 ul of protein solution (200 nM ERG domain in 300mM KCl, 50mM Tris-HCl, 1mM EDTA, 1mM DTT, pH 7.5); 20 nl Control plate and compound library plate; 2 ul of 200 nM biotin-DNA; incubate for 10 min at RT; 1 ul of anti-His antibody conjugated to the long-life fluorescent cryptate donner […] (5ng/ul) and streptavidin conjugated to the acceptor compound […] (0.2 ng/ul) mix; incubate 10 min and measure FRET (Excitation = 320 nm, Emission = 615, 665 nm).

Activity change, negative = inhibition, inactive:
COC(=O)c1ccc(NC(=S)N2CCN(C(=O)c3ccco3)CC2)cc1 -2.23%
COCCNC(=O)Cn1c(=O)n(CCCC(=O)NCc2ccc3c(c2)OCO3)c(=O)c2sccc21 -28.9%
CC(=O)c1cccc(S(=O)(=O)N2CCC(c3nc4ccccc4[nH]3)CC2)c1 -27.3%
COc1cc2nc(N3CCN(C(=O)[C@@H]4CCCO4)CC3)nc(N)c2cc1OC -25.1%
COc1ccc(C(=O)N2CCCC(CCC(=O)NCc3ccccc3F)C2)c(OC)n1 (stereo unspecified) -5.94%
CCOC(=O)c1ccccc1NC(=O)COC(=O)C(Cc1c[nH]c2ccccc12)NC(C)=O (stereo unspecified) -32.6%
CCN(CC)c1cccc(OC2=NS(=O)(=O)c3ccccc32)c1 -23%
CCCc1nc2oc3c(OC)ncnc3c2c2c1COC(C)(C)C2 -0.955%
CCN1CCN(C(=O)C(=O)c2cn(CC(=O)N3CCCCCC3)c3ccccc23)CC1 -17.8%
O=C(NCC1CCN(S(=O)(=O)c2ccccc2)CC1)Nc1ccc(F)cc1 -20.5%
CC1(C)C[C@@H]1C(=O)N/C(=C\CCCCSC[C@H](N)C(=O)O)C(=O)O -9.87%
Cc1ccc(C(=O)N2CCCCC2C(=O)O)cc1S(=O)(=O)N1CCCCC1 (stereo unspecified) -26.3%
NC(=O)c1ccccc1NCC(=O)c1ccc(F)cc1 -21.6%
Cc1ccc(N(CCCCN2C(=O)c3ccccc3C2=O)C(=O)c2ccc(Cl)s2)cc1 -1.7%
COC(=O)/C(=C/Nc1ccc(O)cc1)[N+](=O)[O-] -20.5%
Cc1ccccc1OCC(=O)OCC(=O)NCCc1ccccc1 12.7%
CCN(CC(=O)Nc1ccccc1C(F)(F)F)C(=O)c1ccc(N2C(=O)CCC2=O)cc1 -29.6%
CN(C)S(=O)(=O)c1ccc(C(=O)N(c2ccccn2)c2ccccn2)cc1 -5.2%
COc1ccc(N=c2scc(C)n2CCCN2CCCC2=O)cc1 -25.8%
Nc1ccc(C(=O)O)cc1 4.56%
Nc1cc(C(=O)OCC(=O)NCCCc2ccccc2)ccc1Cl -7.69%
O=C(Nc1ccc(F)cc1F)NC1CC1 -25.6%
O=C(Nc1ccccc1-c1ccccc1)C1CCCCC1 -21.9%
Cn1cc2c(=O)n(/N=C/c3ccccc3)cnc2n1 -15.9%
COc1c2c(c(CCC(=O)O)c3c1C=CC(C)(C)O3)OC(C)(C)C=C2 -24.5%
Cc1ccc(C(=C2C3C=CC2C2C(=O)NC(=O)C32)c2ccc(C)cc2)cc1 (stereo unspecified) -22.2%
O=C(Nc1ccc(-n2cnnn2)cc1)C1CCCCC1 -24.8%
O=C(NC1CCN(S(=O)(=O)c2ccccc2C(F)(F)F)CC1)c1ccco1 -16.3%
CCOCC(=O)N1CCC(Cc2ccccc2)CC1 -7.11%
CCOC(=O)C1=C(C)c2ccccc2N(S(=O)(=O)C(F)(F)F)C1C(=O)OCC (stereo unspecified) -0.53%
COc1ccc(C2CC(=O)C(C=NCCN3CCN(C(=S)Nc4ccccc4)CC3)=C(O)C2)cc1 (stereo unspecified) -9.92%
O=C(COC(=O)/C=C/c1ccc([N+](=O)[O-])cc1)NCc1cccs1 -28.9%
COc1ccc(CC(=O)OCC(=O)Nc2cccnc2Cl)cc1OC 6.58%
Oc1c(Cl)cc(Oc2cc(Cl)c(O)c(CN3CCOCC3)c2)cc1CN1CCOCC1 -24.7%
COc1ccc(-n2cnc3cc(C(=O)NC4CCCC4)ccc32)cc1 -14.5%
Nc1nnc(-c2ccccc2F)s1 -31.9%
Cc1cccc(C(=O)Nc2ccc(C(=O)N3CCCCC3C)cc2)c1 (stereo unspecified) -26.7%
CCOC(=O)C(NC(=O)CC(C)C)(Nc1sc2c(c1C(N)=O)CCCC2)C(F)(F)F (stereo unspecified) -21.5%
CC(=O)c1ccc(OCc2ccc(Oc3c(Cl)cccc3[N+](=O)[O-])cc2)cc1 -23.2%
CCOC(=O)c1c(C)n(CCOc2ccccc2)c2ccc(O)cc12 -27.4%
CCc1ccccc1NC(=O)c1nnn(-c2ccc(F)cc2)c1C -7.69%
CCCCOc1ccc(C(=O)NCCC(=O)NCCCC(=O)OCC)cc1 4.35%
Cc1ccc(N(CC(=O)NCc2ccccc2)C(=O)CCC(=O)Nc2nccs2)cc1 -6.9%
Cc1ccc2oc(-c3ccc(NC(=O)CC(C)C)cc3)nc2c1 -28%
COC(=O)CSc1nnc(CNC(=O)c2ccc(S(=O)(=O)N3CCOCC3)cc2)n1C -23.6%
Cc1ccc(NC(=O)CSc2nc3ccccc3c3nc(CCn4c(C)nc5ccccc54)nn23)cc1F -14.4%
CCOC(=O)C1CN(S(=O)(=O)c2cc(OC)ccc2OC)C1 -25.9%
CC1Cc2ccccc2N1CC(=O)Nc1ccc2c(c1)OCO2 (stereo unspecified) -23.4%
CC(C)CN1CCc2nc(Nc3ccc(F)cc3F)ncc2C1 -26%
COc1cc(NC(=O)c2noc(C)c2[N+](=O)[O-])c(OC)cc1Cl -37.2%
Cc1cc(C)c(NC(=O)Cn2c(=O)n(CCC(=O)N3CCc4ccccc4C3)c(=O)c3ccccc32)c(C)c1 -12.5%
CCOc1ccc(N(CC(=O)NCCc2ccc(Cl)cc2)S(=O)(=O)c2c(C)[nH]c(=O)[nH]c2=O)cc1 -19%
CCOC(=O)c1c(NC(=O)CN2C(=O)NC3(CCC(C)CC3)C2=O)sc(C)c1-c1ccc(C)cc1 (stereo unspecified) -10.5%
CC1(C)C(=O)NCCN1C(=O)c1ccc2nc(Cc3ccccc3F)oc2c1 -29.1%
COc1ccc(-n2nc(C(=O)NCC(=O)Nc3cc(OC)ccc3OC)c3ccccc3c2=O)cc1 -15.6%
CCCN(CCC)Cc1c(C(=O)N/N=C/c2cccs2)nnn1-c1nonc1N -26.5%
CCCCC1=NN(C(=O)c2ccco2)C(O)(C(F)(F)F)C1 (stereo unspecified) -8.75%
CC1(C)C2CCC1(CS(=O)(=O)N1CCC(C(N)=O)CC1)C(=O)C2 (stereo unspecified) 3.34%
COc1ccc(-c2nn3c(=O)cc(CN4CCN(C(=O)/C=C/c5ccccc5)CC4)nc3s2)cc1 -10.7%
O=S(=O)(NCCNS(=O)(=O)c1ccc(F)cc1)c1ccc(F)cc1 -20.7%
O=C(COC(=O)c1cccc(-n2cnnn2)c1)c1ccccc1 -11.8%
COC(=O)c1ccc(C2=NOC(C)(c3sc(-c4ccccc4)nc3C)C2)cc1 (stereo unspecified) -3.45%
COc1ccccc1C(=O)Nn1c(-c2cccs2)nc2ccccc2c1=O -15%
COc1cc(CCC(=O)Nc2ccc(Br)c(C(F)(F)F)c2)cc(OC)c1OC -23.7%
O=C(CN1C(=O)NC2(CCCC2)C1=O)NNC(=O)c1ccc(Cl)cc1 -28.5%
Cc1cc(C)nc(N2C(=O)CC(Cc3ccc(Cl)cc3)C2=O)n1 (stereo unspecified) -18.5%
O=c1o[nH]c(-c2ccccc2)c1-c1ccccc1 -14.2%
O=C(Oc1ccc(Br)cc1)c1n[nH]c(=O)c2ccccc12 -33.9%
Nn1c(Cc2ccccc2)nc2sc3c(c2c1=O)CCC3 -18.9%
COc1ccc(S(=O)(=O)N2CC(C)OC(C)C2)cc1C(=O)N1CCCCC1 (stereo unspecified) -1.64%
O=c1[nH]cc(S(=O)(=O)Nc2ccc3c(c2)OCO3)c(=O)[nH]1 -20.2%
Cc1cc(/C=C2\C(=N)N3N=C(C(C)C)SC3=NC2=O)c(C)n1-c1ccccc1 -18.1%
CCc1ccccc1NC(=O)CSc1nnc(COc2ccccc2Cl)o1 7.59%
COc1ccc(Oc2ccc(N/C=C3\CCCC3=O)cc2)cc1 -20.3%
COC(=O)c1ccsc1NC(=O)c1cccc(OC)c1 28.2%
CC(=O)c1cc(-c2ccccc2)n(CCC(=O)NC(C)(C)C)c1C -23.8%
Cc1ccc(C)c(NC(=S)/C(=C(\[O-])c2ccc(OC(F)F)cc2)[n+]2ccccc2)c1 -29%
CCOC(=O)C1CCC(CN(Cc2ccccc2C)S(=O)(=O)c2ccc([N+](=O)[O-])cc2)CC1 (stereo unspecified) -0.743%
Cc1ccc(NS(=O)(=O)c2ccc(CCC(=O)NCCCOC(C)C)cc2)cc1 -6.37%
C[N+]1(C)C2CC(OC(=O)C(CO)c3ccccc3)CC1C1OC12 (stereo unspecified) -0.584%
CN(C(=O)COC(=O)c1ccc(F)c(S(=O)(=O)N2CCOCC2)c1)C1CCS(=O)(=O)C1 (stereo unspecified) -15.2%
CCOC(=O)c1sc(NC(=O)c2c(-c3ccccc3)c(-c3ccccc3)nn(C)c2=O)nc1C -14.1%
Cc1ccc2c(COC(=O)c3ccccc3Br)cc(=O)oc2c1 -8.54%
Cc1cc(C)cc(NC(=O)CCOc2ccccc2)c1 -18.5%
COc1ccc(CCn2c(C)cc(C(=O)COC(=O)c3cnc(C)cn3)c2C)cc1 -5.2%
CC(C)CN1C2CCCC1CC(NC(=S)NCc1ccco1)C2 (stereo unspecified) -25.1%
COc1ccc(NC(=O)C2CCN(C(=O)C3CC(=O)N(c4ccc(C)cc4)C3)CC2)cc1 (stereo unspecified) 0.743%
CNCC(O)CN1CCN(c2ccccc2OC)CC1 (stereo unspecified) -19.5%
CCOC(=O)C(CC)Sc1ccc2nnc(-c3cccnc3)n2n1 (stereo unspecified) -10.8%
COc1ccc2cc(CO)c(Cl)nc2c1 -30.9%
CCOc1ccc(NC(=O)CSc2nc(-c3cccs3)cc(C(F)(F)F)c2C#N)cc1 17.9%
Cc1ccc(NC(=O)C2CC(O)CN2C(=O)OCc2ccccc2)c(C)c1 (stereo unspecified) 1.01%
Cc1ccc(NCC(=O)N/N=C/c2c[nH]c3ccccc23)cc1 -20.4%
CCOC(=O)CSc1nncc2ccc(OC)c(OC)c12 -31%
Oc1ccc(NCc2cccs2)cc1 -30%
COc1ccccc1CNC(=O)CCNC(=O)C1CCN(S(=O)(=O)c2ccccc2)CC1 -23.7%
CC(C)n1c(SCc2ccccc2F)nc2c1c(=O)n(C)c(=O)n2C -19.2%
Cc1c(NC(=O)c2cc(-n3cnnc3)ccc2Cl)cccc1-c1nc2ccccc2s1 -29.4%
Cc1ccc(C)c(NC(=O)COC(=O)c2ccc[n+]([O-])c2)c1 2.55%
COc1cc(C(=O)Nc2ccc(S(=O)(=O)Nc3cc(C)nc(C)n3)cc2)cc(OC)c1OC -10.3%
Cc1cc(C[n+]2ncsc2N)c2ncccc2c1 -26.6%
Cc1nonc1C1CCCN1C(=O)c1cc(COc2ccc(F)cc2Cl)on1 (stereo unspecified) -30.1%
O=S(=O)(c1ccc(Cl)cc1)N1CCN(CCc2ccccc2)CC1 -26.1%
Cc1cc(F)ccc1NC(=O)c1ccc(NS(=O)(=O)c2cc(C(C)(C)C)ccc2C)cc1 -11.9%
COc1cc(CNCC2CCCO2)ccc1OCC(N)=O (stereo unspecified) -3.61%
COC(=O)C(CSCc1ccccc1)NC(=O)CSc1nc(N)cc(=O)[nH]1 (stereo unspecified) -28.6%

3 entries picked at random from those above:
Activity change, negative = inhibition, inactive:
Cc1cccc(C(=O)Nc2ccc(C(=O)N3CCCCC3C)cc2)c1 (stereo unspecified) -26.7%
O=C(Nc1ccccc1-c1ccccc1)C1CCCCC1 -21.9%
CCN(CC)c1cccc(OC2=NS(=O)(=O)c3ccccc32)c1 -23%

Grouped by structure: those above with bromine (3)
Activity change, negative = inhibition, inactive:
COc1cc(CCC(=O)Nc2ccc(Br)c(C(F)(F)F)c2)cc(OC)c1OC -23.7%
O=C(Oc1ccc(Br)cc1)c1n[nH]c(=O)c2ccccc12 -33.9%
Cc1ccc2c(COC(=O)c3ccccc3Br)cc(=O)oc2c1 -8.54%
